# Data as given in PubChem BioAssay AID1259405 (NCATS, 2018)
# Aim: 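Mouse-designed siRNAs used to find CHO productivity engineering targets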 (primary screen)
# System: Chinese hamster CHO-K1 ovary cells with stable secreted eGFP expression
# Knock-down reagent: single siRNA against mouse genes, 0.8 pmol siRNA per well (2 µl of 400 nM stock)
# Time to read-out: 3 days
# Detection: 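Per-well intracellular GFP measured by laser scanning cytometry, plus viability from ATP luminescence, each relative to plate median of non-targeting control wells, in %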
# Direction: GFP, % of control: higher = more GFP per well, higher productivity; viability (ATP), % of control: higher = more viable cells (more ATP)
# Active means: 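Called active when intracellular GFP, relative to negative control, is at or above 120%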
# Shown is one part, drawn at random, of about 50,000 reagents. Of all reagents, about 4,000 (8%) are marked active. 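Mouse siRNA library applied to hamster cells; one well for each siRNA.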 Unmarked entries are inactive. Reagents against one gene are numbered here.
Target gene,reagent,"GFP, % of control","viability (ATP), % of control"
"Lamb3 (laminin, beta 3)",1,91,105
"Lamb3 (laminin, beta 3)",2,64,81.1
Rbm8a (RNA binding motif protein 8a),1,91.2,41.1
Rbm8a (RNA binding motif protein 8a),2,71.5,44.8
Pate14 (prostate and testis expressed 14),1,78.3,78.7
Pate14 (prostate and testis expressed 14),2,77.7,76.9
Pate14 (prostate and testis expressed 14),3,129 (active),81.8
Cypt3 (cysteine-rich perinuclear theca 3),1,99.2,96.3
Cypt3 (cysteine-rich perinuclear theca 3),2,94.5,73
Cypt3 (cysteine-rich perinuclear theca 3),3,103,110
"Pabpn1 (poly(A) binding protein, nuclear 1)",1,119,99.7
"Pabpn1 (poly(A) binding protein, nuclear 1)",2,81.5,60.5
Mettl15 (methyltransferase like 15),1,96.5,61.4
Mettl15 (methyltransferase like 15),2,62.8,64
Mettl15 (methyltransferase like 15),3,35.5,54.3
"Kcnk13 (potassium channel, subfamily K, member 13)",1,72.9,82.7
"Kcnk13 (potassium channel, subfamily K, member 13)",2,60.4,70.8
"Kcnk13 (potassium channel, subfamily K, member 13)",3,71,86.4
Ndufs3 (NADH:ubiquinone oxidoreductase core subunit S3),1,108,108
Ndufs3 (NADH:ubiquinone oxidoreductase core subunit S3),2,91.2,84.7
Ndufs3 (NADH:ubiquinone oxidoreductase core subunit S3),3,96.7,75.1
Lsm10 (U7 snRNP-specific Sm-like protein LSM10),1,79.5,73.1
Lsm10 (U7 snRNP-specific Sm-like protein LSM10),2,65.7,65.5
Lsm10 (U7 snRNP-specific Sm-like protein LSM10),3,59.9,65
"Klra21 (killer cell lectin-like receptor subfamily A, member 21)",1,98.2,95.5
"Klra21 (killer cell lectin-like receptor subfamily A, member 21)",2,179 (active),107
"Klra21 (killer cell lectin-like receptor subfamily A, member 21)",3,108,76.3
Mid1 (midline 1),1,63,81.7
Mid1 (midline 1),2,63.5,75.9
Mid1 (midline 1),3,61.4,64.8
Gata3 (GATA binding protein 3),1,72.6,52.7
Gata3 (GATA binding protein 3),2,92.3,78.8
Gata3 (GATA binding protein 3),3,96,82.9
"Derl2 (Der1-like domain family, member 2)",1,59.2,47
"Derl2 (Der1-like domain family, member 2)",2,68.4,69.6
"Derl2 (Der1-like domain family, member 2)",3,87.8,83.9
Gnai2 (G protein subunit alpha i2),1,115,86
Gnai2 (G protein subunit alpha i2),2,138 (active),75.2
Gnai2 (G protein subunit alpha i2),3,129 (active),47.9
Pecr (peroxisomal trans-2-enoyl-CoA reductase),1,117,65.8
Pecr (peroxisomal trans-2-enoyl-CoA reductase),2,42.9,59.5
Pecr (peroxisomal trans-2-enoyl-CoA reductase),3,36.6,48.6
"Rab11b (RAB11B, member RAS oncogene family)",1,122 (active),134
"Rab11b (RAB11B, member RAS oncogene family)",2,64.7,43.9
"Rab11b (RAB11B, member RAS oncogene family)",3,97.9,56.5
"Tuba4a (tubulin, alpha 4A)",1,74.9,84.3
"Tuba4a (tubulin, alpha 4A)",2,157 (active),136

Ordered by “viability (ATP), % of control” (descending): 13 of the entries above
Target gene,reagent,"GFP, % of control","viability (ATP), % of control"
Cypt3 (cysteine-rich perinuclear theca 3),3,103,110
"Pabpn1 (poly(A) binding protein, nuclear 1)",1,119,99.7
Cypt3 (cysteine-rich perinuclear theca 3),1,99.2,96.3
Pate14 (prostate and testis expressed 14),3,129 (active),81.8
"Lamb3 (laminin, beta 3)",2,64,81.1
Pate14 (prostate and testis expressed 14),1,78.3,78.7
Pate14 (prostate and testis expressed 14),2,77.7,76.9
Cypt3 (cysteine-rich perinuclear theca 3),2,94.5,73
Mettl15 (methyltransferase like 15),2,62.8,64
Mettl15 (methyltransferase like 15),1,96.5,61.4
"Pabpn1 (poly(A) binding protein, nuclear 1)",2,81.5,60.5
Rbm8a (RNA binding motif protein 8a),2,71.5,44.8
Rbm8a (RNA binding motif protein 8a),1,91.2,41.1

The listing continues:
Target gene,reagent,"GFP, % of control","viability (ATP), % of control"
Hspg2 (perlecan (heparan sulfate proteoglycan 2)),1,59.1,68
Hspg2 (perlecan (heparan sulfate proteoglycan 2)),2,51.5,63.2
Hspg2 (perlecan (heparan sulfate proteoglycan 2)),3,119,85.3
Htr2a (5-hydroxytryptamine (serotonin) receptor 2A),1,68.3,75
Htr2a (5-hydroxytryptamine (serotonin) receptor 2A),2,66.9,72.4
Htr2a (5-hydroxytryptamine (serotonin) receptor 2A),3,66,79.4
Or13d1 (olfactory receptor family 13 subfamily D member 1),1,80.1,68.9
Or13d1 (olfactory receptor family 13 subfamily D member 1),2,80.5,78.9
Or13d1 (olfactory receptor family 13 subfamily D member 1),3,58,81.2
Dennd6a (DENN domain containing 6A),1,72.9,74
Dennd6a (DENN domain containing 6A),2,46.8,26.5
Dennd6a (DENN domain containing 6A),3,48.1,71.3
Or10j3b (olfactory receptor family 10 subfamily J member 3B),1,105,71.8
Or10j3b (olfactory receptor family 10 subfamily J member 3B),2,76.6,75.9
Or10j3b (olfactory receptor family 10 subfamily J member 3B),3,68.4,32.9
Egln2 (egl-9 family hypoxia-inducible factor 2),1,50,40.4
Egln2 (egl-9 family hypoxia-inducible factor 2),2,84.1,83.2
Egln2 (egl-9 family hypoxia-inducible factor 2),3,47.1,74.5
"Cacnb3 (calcium channel, voltage-dependent, beta 3 subunit)",1,85.8,67.3
"Cacnb3 (calcium channel, voltage-dependent, beta 3 subunit)",2,53.4,40.9
"Cacnb3 (calcium channel, voltage-dependent, beta 3 subunit)",3,85.8,69
Ctdspl2 (CTD small phosphatase like 2),1,101,49.3
Ctdspl2 (CTD small phosphatase like 2),2,91.4,107
Ctdspl2 (CTD small phosphatase like 2),3,57.9,68.9
Zpr1 (ZPR1 zinc finger),1,86.8,80.9
Zpr1 (ZPR1 zinc finger),2,88.2,68.1
Zpr1 (ZPR1 zinc finger),3,109,105
Orai3 (ORAI calcium release-activated calcium modulator 3),1,71.9,55.3
Orai3 (ORAI calcium release-activated calcium modulator 3),2,97.4,92.3
Orai3 (ORAI calcium release-activated calcium modulator 3),3,73.5,86.5
"Bcat2 (branched chain aminotransferase 2, mitochondrial)",1,77.5,97.1
"Bcat2 (branched chain aminotransferase 2, mitochondrial)",2,204 (active),121
"Bcat2 (branched chain aminotransferase 2, mitochondrial)",3,104,111
"Cyp4a14 (cytochrome P450, family 4, subfamily a, polypeptide 14)",1,71.3,69
"Cyp4a14 (cytochrome P450, family 4, subfamily a, polypeptide 14)",2,83.2,82.7
"Cyp4a14 (cytochrome P450, family 4, subfamily a, polypeptide 14)",3,73.5,57.8
Prss45 (serine protease 45),1,117,105
Prss45 (serine protease 45),2,105,60.5
Prss45 (serine protease 45),3,52.7,57.6
